Data on seven molecules can be found in patent publication US12729225B2, “Non-canonical SWI/SNF complex and uses thereof” (Dana-Farber Cancer Institute, Inc., priority 2018, dated 2026).

The data set deals with mSWI/SNF complexes. Kind of data set: mSWI/SNF complex purification with HA-tagged baits and mass spectrometry (peptide counts). Further details: species or system human. Particulars: 293_HA-BRD7 bait purification, mass spectrometry; for Total: total peptides per co-purified protein; for Unique: unique peptides per co-purified protein.

B1: UTP15 (protein, UniProt Q8TED0 2-518, looked up)
U3 small nucleolar …: AGYKPVAIQTYPILGEKITQDTLYWNNYKTPVQIKEFGAVSKVDFSPQPPYNYAVTASSRIHIYGRYSQEPIKTFSRFKDTAYCATFRQDGRLLVAGSEDGGVQLFDISGRAPLRQFEGHTKAVHTVDFTADKYHVVSGADDYTVKLWDIPNSKEILTFKEHSDYVRCGCASKLNPDLFITGSYDHTVKMFDARTSESVLSVEHGQPVESVLLFPSGGLLVSAGGRYVKVWDMLKGGQLLVSLKNHHKTVTCLCLSSSGQRLLSGSLDRKVKVYSTTSYKVVHSFDYAASILSLALAHEDETIVVGMTNGILSVKHRKSEAKKESLPRRRRPAYRTFIKGKNYMKQRDDILINRPAKKHLELYDRDLKHFRISKALDRVLDPTCTIKTPEITVSIIKELNRRGVLANALAGRDEKEISHVLNFLIRNLSQPRFAPVLINAAEIIIDIYLPVIGQSPVVDKKFLLLQGLVEKEIDYQRELLETLGMMDMLFATMRRKEGTSVLEHTSDGFPENKKIES
B1 had a Total of 3 and a Unique of 3.

B2: DHX37 (protein, UniProt Q8IY37 1-1157, looked up)
Probable ATP-dependent RNA …: MGKLRRRYNIKGRQQAGPGPSKGPPEPPPVQLELEDKDTLKGVDASNALVLPGKKKKKTKAPPLSKKEKKPLTKKEKKVLQKILEQKEKKSQRAEMLQKLSEVQASEAEMRLFYTTSKLGTGNRMYHTKEKADEVVAPGQEKISSLSGAHRKRRRWPSAEEEEEEEEESESELEEESELDEDPAAEPAEAGVGTTVAPLPPAPAPSSQPVPAGMTVPPPPAAAPPLPRALAKPAVFIPVNRSPEMQEERLKLPILSEEQVIMEAVAEHPIVIVCGETGSGKTTQVPQFLYEAGFSSEDSIIGVTEPRRVAAVAMSQRVAKEMNLSQRVVSYQIRYEGNVTEETRIKFMTDGVLLKEIQKDFLLLRYKVVIIDEAHERSVYTDILIGLLSRIVTLRAKRNLPLKLLIMSATLRVEDFTQNPRLFAKPPPVIKVESRQFPVTVHFNKRTPLEDYSGECFRKVCKIHRMLPAGGILVFLTGQAEVHALCRRLRKAFPPSRARPQEKDDDQKDSVEEMRKFKKSRARAKKARAEVLPQINLDHYSVLPAGEGDEDREAEVDEEEGALDSDLDLDLGDGGQDGGEQPDASLPLHVLPLYSLLAPEKQAQVFKPPPEGTRLCVVATNVAETSLTIPGIKYVVDCGKVKKRYYDRVTGVSSFRVTWVSQASADQRAGRAGRTEPGHCYRLYSSAVFGDFEQFPPPEITRRPVEDLILQMKALNVEKVINFPFPTPPSVEALLAAEELLIALGALQPPQKAERVKQLQENRLSCPITALGRTMATFPVAPRYAKMLALSRQHGCLPYAITIVASMTVRELFEELDRPAASDEELTRLKSKRARVAQMKRTWAGQGASLKLGDLMVLLGAVGACEYASCTPQFCEANGLRYKAMMEIRRLRGQLTTAVNAVCPEAELFVDPKMQPPTESQVTYLRQIVTAGLGDHLARRVQSEEMLEDKWRNAYKTPLLDDPVFIHPSSVLFKELPEFVVYQEIVETTKMYMKGVSSVEVQWIPALLPSYCQFDKPLEEPAPTYCPERGRVLCHRASVFYRVGWPLPAIEVDFPEGIDRYKHFARFLLEGQVFRKLASYRSCLLSSPGTMLKTWARLQPRTESLLRALVAEKADCHEALLAAWKKNPKYLLAEYCEWLPQAMHPDIEKAWPPTTVH
Regarding B2, the Total came to 3 and the Unique is listed as 3.

B3: TEX10 (protein, UniProt Q9NXF1 1-929, looked up)
Testis-expressed protein 10: MTKKRKRQHDFQKVKLKVGKKKPKLQNATPTNFKTKTIHLPEQLKEDGTLPTNNRKLNIKDLLSQMHHYNAGVKQSALLGLKDLLSQYPFIIDAHLSNILSEVTAVFTDKDANVRLAAVQLLQFLAPKIRAEQISPFFPLVSAHLSSAMTHITEGIQEDSLKVLDILLEQYPALITGRSSILLKNFVELISHQQLSKGLINRDRSQSWILSVNPNRRLTSQQWRLKVLVRLSKFLQALADGSSRLRESEGLQEQKENPHATSNSIFINWKEHANDQQHIQVYENGGSQPNVSSQFRLRYLVGGLSGVDEGLSSTENLKGFIEIIIPLLIECWVEAVPPQLATPVGNGIEREPLQVMQQVLNIISLLWKLSKQQDETHKLESWLRKNYLIDFKHHFMSRFPYVLKEITKHKRKEPNKSIKHCTVLSNNIDHLLLNLTLSDIMVSLANASTLQKDCSWIEMIRKFVTETLEDGSRLNSKQLNRLLGVSWRLMQIQPNREDTETLIKAVYTLYQQRGLILPVRTLLLKFFSKIYQTEELRSCRFRYRSKVLSRWLAGLPLQLAHLGSRNPELSTQLIDIIHTAAARANKELLKSLQATALRIYDPQEGAVVVLPADSQQRLVQLVYFLPSLPADLLSRLSRCCIMGRLSSSLAAMLIGILHMRSSFSGWKYSAKDWLMSDVDYFSFLFSTLTGFSKEELTWLQSLRGVPHVIQTQLSPVLLYLTDLDQFLHHWDVTEAVFHSLLVIPARSQNFDILQSAISKHLVGLTVIPDSTAGCVFGVICKLLDHTCVVSETLLPFLASCCYSLLYFLLTIEKGEAEHLRKRDKLWGVCVSILALLPRVLRLMLQSLRVNRVGPEELPVVGQLLRLLLQHAPLRTHMLTNAILVQQIIKNITTLKSGSVQEQWLTDLHYCFNVYITGHPQGPSALATVY
Take B3: the Total is 3 and the Unique is 3.

B4: NOC3L (protein, UniProt Q8WTT2 1-800, looked up)
Nucleolar complex protein 3 …: MKARRNKKQIPSFRKLIKTSKVKLENKLKNKQFKQQSTLKKYRKEQRKLRQAVKDAVSKKPIPLENPKEKRPGKRIEREEEEEEEALPLDMMDEDDLQLMKDLGQRVSFLTRDLSSSEPVHAKKRKHERIIDKYEKIPRTLQTAPEKELIHLLPIKDKSGIIPQTREKPVTDSNKDEEDQEEERELEEEIIEDPIQELTIEEHLIERKKKLQEKKMHIAALASAILSDPENNIKKLKELRSMLMEQDPDVAVTVRKLVIVSLMELFKDITPSYKIRPLTEAEKSTKTRKETQKLREFEEGLVSQYKFYLENLEQMVKDWKQRKLKKSNVVSLKAYKGLAEVAVKSLCELLVALPHFNFHNNIIVLIVPLMNDMSKLISEMCCEAVKKLFKQDKLGQASLGVIKVISGFVKGRNYEVRPEMLKTFLCLRIKEVEVKKDTEDINKPKKFMTFKEKRKSLSRMQRKWKKAEEKLERELREAEASESTEKKLKLHTETLNIVFVTYFRILKKAQRSPLLPAVLEGLAKFAHLINVEFFDDLLVVLHTLIESGDLSYQESLHCVQTAFHILSGQGDVLNIDPLKFYTHLYKTLFKLHAGATNEGVEIVLQCLDVMLTKRRKQVSQQRALAFIKRLCTLALHVLPNSSIGILATTRILMHTFPKTDLLLDSESQGSGVFLPELDEPEYCNAQNTALWELHALRRHYHPIVQRFAAHLIAGAPSEGSGALKPELSRRSATELFEAYSMAEMTFNPPVESSNPKIKGKFLQGDSFLNEDLNQLIKRYSSEVATESPLDFTKYLKTSLH
Turning to B4, the Total is listed as 3 and the Unique stood at 3.

B5: SRRM1 (protein, UniProt Q8IYB3 1-904, looked up)
Serine/arginine repetitive …: MDAGFFRGTSAEQDNRFSNKQKKLLKQLKFAECLEKKVDMSKVNLEVIKPWITKRVTEILGFEDDVVIEFIFNQLEVKNPDSKMMQINLTGFLNGKNAREFMGELWPLLLSAQENIAGIPSAFLELKKEEIKQRQIEQEKLASMKKQDEDKDKRDKEEKESSREKRERSRSPRRRKSRSPSPRRRSSPVRRERKRSHSRSPRHRTKSRSPSPAPEKKEKTPELPEPSVKVKEPSVQEATSTSDILKVPKPEPIPEPKEPSPEKNSKKEKEKEKTRPRSRSRSKSRSRTRSRSPSHTRPRRRHRSRSRSYSPRRRPSPRRRPSPRRRTPPRRMPPPPRHRRSRSPVRRRRRSSASLSGSSSSSSSSRSRSPPKKPPKRTSSPPRKTRRLSPSASPPRRRHRPSPPATPPPKTRHSPTPQQSNRTRKSRVSVSPGRTSGKVTKHKGTEKRESPSPAPKPRKVELSESEEDKGGKMAAADSVQQRRQYRRQNQQSSSDSGSSSSSEDERPKRSHVKNGEVGRRRRHSPSRSASPSPRKRQKETSPRGRRRRSPSPPPTRRRRSPSPAPPPRRRRTPTPPPRRRTPSPPPRRRSPSPRRYSPPIQRRYSPSPPPKRRTASPPPPPKRRASPSPPPKRRVSHSPPPKQRSSPVTKRRSPSLSSKHRKGSSPSRSTREARSPQPNKRHSPSPRPRAPQTSSSPPPVRRGASSSPQRRQSPSPSTRPIRRVSRTPEPKKIKKAASPSPQSVRRVSSSRSVSGSPEPAAKKPPAPPSPVQSQSPSTNWSPAVPVKKAKSPTPSPSPPRNSDQEGGGKKKKKKKDKKHKKDKKHKKHKKHKKEKAVAAAAAAAVTPAAIAAATTTLAQEEPVAAPEPKKETESEAEDNLDDLEKHLREKALRSMRKAQVSPQS
B5 registered a Total of 3 and a Unique of 3.

B6: ACTN1 (protein, UniProt P12814 1-892, looked up)
Alpha-actinin-1: MDHYDSQQTNDYMQPEEDWDRDLLLDPAWEKQQRKTFTAWCNSHLRKAGTQIENIEEDFRDGLKLMLLLEVISGERLAKPERGKMRVHKISNVNKALDFIASKGVKLVSIGAEEIVDGNVKMTLGMIWTIILRFAIQDISVEETSAKEGLLLWCQRKTAPYKNVNIQNFHISWKDGLGFCALIHRHRPELIDYGKLRKDDPLTNLNTAFDVAEKYLDIPKMLDAEDIVGTARPDEKAIMTYVSSFYHAFSGAQKAETAANRICKVLAVNQENEQLMEDYEKLASDLLEWIRRTIPWLENRVPENTMHAMQQKLEDFRDYRRLHKPPKVQEKCQLEINFNTLQTKLRLSNRPAFMPSEGRMVSDINNAWGCLEQVEKGYEEWLLNEIRRLERLDHLAEKFRQKASIHEAWTDGKEAMLRQKDYETATLSEIKALLKKHEAFESDLAAHQDRVEQIAAIAQELNELDYYDSPSVNARCQKICDQWDNLGALTQKRREALERTEKLLETIDQLYLEYAKRAAPFNNWMEGAMEDLQDTFIVHTIEEIQGLTTAHEQFKATLPDADKERLAILGIHNEVSKIVQTYHVNMAGTNPYTTITPQEINGKWDHVRQLVPRRDQALTEEHARQQHNERLRKQFGAQANVIGPWIQTKMEEIGRISIEMHGTLEDQLSHLRQYEKSIVNYKPKIDQLEGDHQLIQEALIFDNKHTNYTMEHIRVGWEQLLTTIARTINEVENQILTRDAKGISQEQMNEFRASFNHFDRDHSGTLGPEEFKACLISLGYDIGNDPQGEAEFARIMSIVDPNRLGVVTFQAFIDFMSRETADTDTADQVMASFKILAGDKNYITMDELRRELPPDQAEYCIARMAPYTGPDSVPGALDYMSFSTALYGESDL
Molecule B6 showed a Total of 3 and a Unique of 3.

B7: HNRNPA3 (protein, UniProt P51991 1-378, looked up)
Heterogeneous nuclear …: MEVKPPPGRPQPDSGRRRRRRGEEGHDPKEPEQLRKLFIGGLSFETTDDSLREHFEKWGTLTDCVVMRDPQTKRSRGFGFVTYSCVEEVDAAMCARPHKVDGRVVEPKRAVSREDSVKPGAHLTVKKIFVGGIKEDTEEYNLRDYFEKYGKIETIEVMEDRQSGKKRGFAFVTFDDHDTVDKIVVQKYHTINGHNCEVKKALSKQEMQSAGSQRGRGGGSGNFMGRGGNFGGGGGNFGRGGNFGGRGGYGGGGGGSRGSYGGGDGGYNGFGGDGGNYGGGPGYSSRGGYGGGGPGYGNQGGGYGGGGGYDGYNEGGNFGGGNYGGGGNYNDFGNYSGQQQSNYGPMKGGSFGGRSSGSPYGGGYGSGGGSGGYGSRRF
B7: the Total stood at 3 and the Unique is recorded as 3.
